Assay results: article PMC4036362, “Normal Activation of Discoidin Domain Receptor 1 Mutants with Disulfide Cross-links, Insertions, or Deletions in the Extracellular Juxtamembrane Region” (The Journal of Biological Chemistry, 2014)
No constants are given. Whether binding was seen depends on the method and setting. Binding seen in cells or lysates may run through a third protein. Some results given as binding are weak or reduced against the parent protein; the word gives no strength.

Amino acid sequences for entries named in this document (tags omitted). A change or cut given only in a name is not applied to a line headed by its entry. Chains listed by the source or under a name are the forms on record and can include a tag or linker.
DDR1 V220C (in the C287S background) (Q08345, form named): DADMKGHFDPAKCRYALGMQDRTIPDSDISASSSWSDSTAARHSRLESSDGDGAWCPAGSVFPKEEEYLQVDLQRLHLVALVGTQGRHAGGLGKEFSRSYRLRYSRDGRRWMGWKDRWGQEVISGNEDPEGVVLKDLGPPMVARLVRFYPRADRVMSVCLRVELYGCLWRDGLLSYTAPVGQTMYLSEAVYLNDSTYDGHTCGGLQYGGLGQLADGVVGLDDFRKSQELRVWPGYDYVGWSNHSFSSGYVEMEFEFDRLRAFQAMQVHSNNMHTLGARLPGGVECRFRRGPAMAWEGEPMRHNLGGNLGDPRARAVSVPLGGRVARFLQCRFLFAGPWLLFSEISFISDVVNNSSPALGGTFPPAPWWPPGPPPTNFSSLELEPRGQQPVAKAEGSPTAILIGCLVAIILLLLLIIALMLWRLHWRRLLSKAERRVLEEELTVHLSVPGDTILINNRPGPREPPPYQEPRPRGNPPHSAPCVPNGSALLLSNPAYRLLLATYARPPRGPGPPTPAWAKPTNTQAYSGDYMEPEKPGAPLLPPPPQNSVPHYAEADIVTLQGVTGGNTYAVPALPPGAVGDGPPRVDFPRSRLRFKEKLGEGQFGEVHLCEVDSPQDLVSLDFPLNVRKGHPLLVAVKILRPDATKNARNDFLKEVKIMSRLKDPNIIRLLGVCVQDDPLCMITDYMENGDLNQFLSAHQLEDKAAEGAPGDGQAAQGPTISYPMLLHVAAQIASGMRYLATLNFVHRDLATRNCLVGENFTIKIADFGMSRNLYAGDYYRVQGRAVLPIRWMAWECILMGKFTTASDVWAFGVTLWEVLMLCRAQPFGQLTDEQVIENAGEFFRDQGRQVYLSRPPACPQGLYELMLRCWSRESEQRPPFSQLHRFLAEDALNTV
DDR1 P387C (in the C287S background) (Q08345, form named): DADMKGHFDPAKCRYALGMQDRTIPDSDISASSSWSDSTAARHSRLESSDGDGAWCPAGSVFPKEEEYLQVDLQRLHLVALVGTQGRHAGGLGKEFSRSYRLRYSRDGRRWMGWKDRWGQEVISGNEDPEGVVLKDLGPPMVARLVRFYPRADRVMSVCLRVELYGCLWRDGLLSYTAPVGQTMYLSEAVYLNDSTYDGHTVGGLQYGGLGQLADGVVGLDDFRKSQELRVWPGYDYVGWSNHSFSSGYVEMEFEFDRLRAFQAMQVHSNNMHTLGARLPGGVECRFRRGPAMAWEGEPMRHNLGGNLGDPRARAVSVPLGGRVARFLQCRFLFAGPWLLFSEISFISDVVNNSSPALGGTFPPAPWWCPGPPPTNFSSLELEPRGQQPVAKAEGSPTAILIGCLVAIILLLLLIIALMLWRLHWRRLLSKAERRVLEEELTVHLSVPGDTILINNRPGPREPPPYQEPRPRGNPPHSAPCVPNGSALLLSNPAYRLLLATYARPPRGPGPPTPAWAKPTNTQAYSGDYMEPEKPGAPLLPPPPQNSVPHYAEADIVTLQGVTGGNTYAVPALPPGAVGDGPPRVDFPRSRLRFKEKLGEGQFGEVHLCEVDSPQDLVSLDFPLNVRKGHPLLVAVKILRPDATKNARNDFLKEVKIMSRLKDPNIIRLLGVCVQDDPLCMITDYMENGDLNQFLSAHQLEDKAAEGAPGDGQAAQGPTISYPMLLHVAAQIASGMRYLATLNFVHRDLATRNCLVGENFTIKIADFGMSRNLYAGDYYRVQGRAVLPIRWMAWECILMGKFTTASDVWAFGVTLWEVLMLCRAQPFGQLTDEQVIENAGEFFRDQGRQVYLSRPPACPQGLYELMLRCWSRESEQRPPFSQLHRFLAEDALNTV
DDR1 L247C (in the C287S background) (Q08345, form named): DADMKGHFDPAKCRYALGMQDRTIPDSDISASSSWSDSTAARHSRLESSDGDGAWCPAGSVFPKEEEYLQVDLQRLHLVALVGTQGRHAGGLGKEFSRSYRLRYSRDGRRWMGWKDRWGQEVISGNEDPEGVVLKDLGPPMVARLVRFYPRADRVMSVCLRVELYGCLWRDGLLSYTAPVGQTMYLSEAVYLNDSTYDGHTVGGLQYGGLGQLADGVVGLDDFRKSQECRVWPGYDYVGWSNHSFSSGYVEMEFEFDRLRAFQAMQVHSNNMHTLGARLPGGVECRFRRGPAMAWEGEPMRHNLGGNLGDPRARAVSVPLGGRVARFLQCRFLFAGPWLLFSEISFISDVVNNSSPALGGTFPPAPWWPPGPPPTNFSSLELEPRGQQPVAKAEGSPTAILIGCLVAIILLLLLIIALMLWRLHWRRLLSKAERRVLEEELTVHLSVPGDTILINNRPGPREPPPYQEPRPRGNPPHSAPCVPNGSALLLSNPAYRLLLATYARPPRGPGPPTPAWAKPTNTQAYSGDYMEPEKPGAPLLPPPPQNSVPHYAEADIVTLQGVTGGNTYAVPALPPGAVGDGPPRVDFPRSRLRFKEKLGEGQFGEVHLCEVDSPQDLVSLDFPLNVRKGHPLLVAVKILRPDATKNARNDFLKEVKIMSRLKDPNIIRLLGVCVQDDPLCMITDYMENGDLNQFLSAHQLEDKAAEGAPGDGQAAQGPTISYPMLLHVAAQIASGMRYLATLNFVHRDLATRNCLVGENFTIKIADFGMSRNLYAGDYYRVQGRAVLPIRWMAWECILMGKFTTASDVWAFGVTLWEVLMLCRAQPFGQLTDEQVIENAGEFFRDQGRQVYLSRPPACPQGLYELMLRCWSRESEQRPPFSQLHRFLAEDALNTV

Experiments:
Assay in all cases: cross-linking; disulfide cross-linking of introduced cysteines in transiently transfected HEK293 cells, untreated or with 10 ug/ml collagen I for 90 min at 37 °C; lysis in 1% Nonidet P-40 buffer with NEM; nonreducing SDS-PAGE on 5% gels, Western blot with anti-DDR1; efficiency as percent dimeric of total DDR1
[1] = molecular target: DDR1 V220C (in the C287S background) (human) (UniProt Q08345)
[2] = molecular target: DDR1 P387C (in the C287S background) (human) (UniProt Q08345)
[3] = molecular target: DDR1 L247C (in the C287S background) (human) (UniProt Q08345)

**Q.** “DDR1 V220C (in the C287S background) (from UniProt Q08345 19-913) (receptor)” was tested. Which binding [1] did it give?
**A.** binds

**Q.** With “DDR1 P387C (in the C287S background) (from UniProt Q08345 19-913) (receptor)” as the substance, how does the binding [2] read?
**A.** binds

**Q.** For “DDR1 L247C (in the C287S background) (from UniProt Q08345 19-913) (receptor)”, which binding [3] is on record?
**A.** binds
